These are yes or no findings as the source states them, for the method shown. Some results given as binding are weak or reduced against the parent protein; the word gives no strength.
Target: human gp39 coated on Biacore chips (human) (UniProt P29965)
Test: Biacore, gp39 on chip

Amino acid sequences for entries named in this document (tags omitted). Residues count along the entry.
UniProt P29965, residues 47-261: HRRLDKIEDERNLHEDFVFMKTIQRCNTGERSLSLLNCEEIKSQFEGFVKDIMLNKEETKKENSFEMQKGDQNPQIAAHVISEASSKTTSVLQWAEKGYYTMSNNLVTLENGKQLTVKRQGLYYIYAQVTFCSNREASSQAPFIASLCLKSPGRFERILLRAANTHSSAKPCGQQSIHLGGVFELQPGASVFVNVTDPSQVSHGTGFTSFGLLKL

binding: binds
B1: 106 sFv-Ig (scFv)
scFv: DIQMTQSPASLSASVGETVTITCRASETIYSYLAWYQQKQGRSPQLLVYNAKTLAEGVPSRFSGSGSGTQFSLKINSLQPEDFGSYYCQHHYNTPLTFGTGTKLELKRGGGGSGGGGSGGGGSEVKLVESGGGLVKPGGSLKLSCTTSGFTFNNYAMSWVRQTPEKRLEWVASISSGDSTYYFDSVRGRFTISRDNARNILYLQMSSLRSEDTAMYYCARHYDYDSYAMDYWGQGTSVTVS
notes: VL-linker-VH-human Ig, monomeric; L6 V kappa leader used for secretion; not shown: hinge-CH2-CH3 of human IgG1
